PubChem BioAssay AID504764, Drosophila RNAi Screening Center – 2011
Assay: 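Genome-wide screen for regulators of Notch-driven gene expression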 (primary screen). Cell system: Drosophila Kc167 cells. Reagents: long dsRNA against Drosophila genes. Time to read-out: about 5 days (4 days dsRNA, then 24 h after transfection). Treatment: transfection of constitutively active membrane-tethered Notch lacking the extracellular domain, read 24 h later. Read-out: 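Light from a Notch-responsive E(spl)m3 luciferase reporter under active Notch, with control-promoter and no-Notch reporter wells to normalise; raw counts from paired wells a and b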. Direction: induced reporter light, run 1, well a and induced reporter light, run 1, well b: higher = more light from the Notch target reporter with active Notch; control promoter light, run 1, well a and control promoter light, run 1, well b: higher = more light from the viral control promoter (cell number, transfection, viability); uninduced reporter light, run 1, well a: higher = more light from the Notch target reporter without active Notch. Active means: 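Hit if the duplicate-averaged log2 ratio of induced to control-promoter light gives a plate-wise z beyond ±2, or induced to uninduced beyond ±1.8; weak-control or discordant-duplicate wells dropped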. Calls: active = modifier hit (raised or lowered Notch signal); inactive = not a hit.
In all, the deposit lists about 22,000 reagents; below is a random part of those that have a named target and a result. Of all reagents, 403 (1.9%) are marked active. 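Unnormalised raw counts per well; ratio z-scores behind the hit calls and whether each hit raises or lowers signal are not deposited.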 Unmarked entries are inactive. The record does not give: the amount of reagent.

CG42471 showed induced reporter light, run 1, well a = 1.20e5; induced reporter light, run 1, well b = 1.18e5; control promoter light, run 1, well a = 1.60e5; control promoter light, run 1, well b = 1.57e5; uninduced reporter light, run 1, well a = 8910.
For mRpL52, the entry reads induced reporter light, run 1, well a = 1.41e5; induced reporter light, run 1, well b = 1.45e5; control promoter light, run 1, well a = 1.68e5; control promoter light, run 1, well b = 1.83e5; uninduced reporter light, run 1, well a = 13570.
With knock-down of EndoA, the record shows induced reporter light, run 1, well a = 2.80e5; induced reporter light, run 1, well b = 2.72e5; control promoter light, run 1, well a = 3.16e5; control promoter light, run 1, well b = 3.70e5; uninduced reporter light, run 1, well a = 16030.
After knock-down of Hmt-1 the results were induced reporter light, run 1, well a = 2.39e5; induced reporter light, run 1, well b = 3.09e5; control promoter light, run 1, well a = 4.26e5; control promoter light, run 1, well b = 4.58e5; uninduced reporter light, run 1, well a = 19775.
For Catsup, the entry reads induced reporter light, run 1, well a = 42720; induced reporter light, run 1, well b = 36830; control promoter light, run 1, well a = 37765; control promoter light, run 1, well b = 46355; uninduced reporter light, run 1, well a = 2365.
Against CG18549 the deposit lists induced reporter light, run 1, well a = 2900; induced reporter light, run 1, well b = 2490; control promoter light, run 1, well a = 4615; control promoter light, run 1, well b = 3605; uninduced reporter light, run 1, well a = 775.
After knock-down of aly, the screen gave induced reporter light, run 1, well a = 1.27e5; induced reporter light, run 1, well b = 1.57e5; control promoter light, run 1, well a = 1.81e5; control promoter light, run 1, well b = 1.66e5; uninduced reporter light, run 1, well a = 10175.
Against CG16926, the values are induced reporter light, run 1, well a = 96405; induced reporter light, run 1, well b = 83910; control promoter light, run 1, well a = 1.89e5; control promoter light, run 1, well b = 2.16e5; uninduced reporter light, run 1, well a = 8030.
For Yeti, the entry reads induced reporter light, run 1, well a = 29630; induced reporter light, run 1, well b = 23525; control promoter light, run 1, well a = 37555; control promoter light, run 1, well b = 43290; uninduced reporter light, run 1, well a = 2555.
CG7029 gave induced reporter light, run 1, well a = 11692; induced reporter light, run 1, well b = 9450; control promoter light, run 1, well a = 8210; control promoter light, run 1, well b = 12000; uninduced reporter light, run 1, well a = 1340.
For PolA1 the deposit lists induced reporter light, run 1, well a = 92920; induced reporter light, run 1, well b = 1.20e5; control promoter light, run 1, well a = 1.29e5; control promoter light, run 1, well b = 1.63e5; uninduced reporter light, run 1, well a = 10170.
For CG34253, the entry reads induced reporter light, run 1, well a = 2.08e5; induced reporter light, run 1, well b = 1.63e5; control promoter light, run 1, well a = 2.56e5; control promoter light, run 1, well b = 3.46e5; uninduced reporter light, run 1, well a = 15920.
